From patent US20030124508A1, “Method for testing the hormonal effect of substances” (priority 2001, published 2003)
These are yes or no findings as the source states them, for the method shown. Some entries that bind do so weakly or less than the wild type.

Sequences of proteins named here, by UniProt entry; tags and fusion partners are left off. Residues count along the entry.
UniProt P10275, residues 325-919: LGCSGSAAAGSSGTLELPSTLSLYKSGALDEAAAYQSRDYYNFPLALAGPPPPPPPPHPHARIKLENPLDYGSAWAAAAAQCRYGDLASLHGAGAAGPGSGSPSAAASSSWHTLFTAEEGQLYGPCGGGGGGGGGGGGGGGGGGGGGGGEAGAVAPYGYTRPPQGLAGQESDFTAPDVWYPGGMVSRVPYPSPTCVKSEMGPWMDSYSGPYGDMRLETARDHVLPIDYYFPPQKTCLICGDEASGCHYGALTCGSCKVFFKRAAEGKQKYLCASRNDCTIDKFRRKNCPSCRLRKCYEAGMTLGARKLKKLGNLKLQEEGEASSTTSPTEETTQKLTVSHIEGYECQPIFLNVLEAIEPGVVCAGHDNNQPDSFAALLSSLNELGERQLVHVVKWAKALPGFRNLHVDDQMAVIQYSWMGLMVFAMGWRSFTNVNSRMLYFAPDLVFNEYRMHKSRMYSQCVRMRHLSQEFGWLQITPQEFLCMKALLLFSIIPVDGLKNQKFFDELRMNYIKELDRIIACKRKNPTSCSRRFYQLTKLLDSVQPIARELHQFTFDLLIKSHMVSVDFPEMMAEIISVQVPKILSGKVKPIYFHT

What was measured:
[1] = target: human AR fragment which codes for amino acids 325-919 (human) (UniProt P10275); assay: yeast two-hybrid, AR 325-919 as bait, no androgen
[2] = target: human AR fragment which codes for amino acids 325-919 (human) (UniProt P10275); assay: yeast two-hybrid screen of a fetal brain cDNA library, beta-galactosidase assay, no androgen

- binding [1]: binds
- binding [2]: binds
B1: ARAP11 two-hybrid clone with an insert comprising 1,169 bp (3,243 bp-4,412 bp), which codes for a part of the ORF (protein)
chain: TVKDYLRDIDLICSNALEYNPDRDPGDRLIRHRACALRDTAYAIIKEELDEDFEQLCEEIQESRKKRGCSSSKYAPSYYHVMPKQNSTLVGDKRSDPEQNEKLKTPSTPVACSTPAQLKRKIRKKSNWYLGTIKKRRKISQAKDDSQNAIDHKIESDTEETQDTSVDHNETGNTGESSVEENEKQQNASESKLELRNNSNTCNIENELEDSRKTTACTELRDKIACNGDASSSQIIHISDENEGKEMCVLRMTRARRSQVEQQQLITVEKALAILSQPTPSLVVDHERLKNLLKTVVKKSQNYNIFQLENLYAVISQCIYRHRKDHDKTSLIQKMEQEVENFSCSR
